Laboratory results taken from patent US7001983B1, “Antipathogenic synthetic peptides and compositions comprising them” (priority 1997, dated 2006).
At least one peptide structure holds a part that was inferred or is arguable (an end, a ring closure or a residue). Square brackets hold non-standard residues; d marks the D form. Peptide text beside a SMILES is read from it.

What was measured:
[1] = Membrane permeation, diffusion potential assay; settings: dissipation of diffusion potential
Method: (xi) Membrane permeation induced by the peptides. Membrane permeation was assessed utilizing the diffusion potential assay (Loew et al., 1983; Sims et al., 1974) as previously described (Shai et al., 1991). In a typical experiment, in a glass tube, 4 μl of a liposomes suspension (final phospholipids concentration of 33 μM), in a K^+ containing buffer (50 mM K2SO4, 25 mM HEPES-SO4^−2, pH 6.8), was diluted in 1 ml of an isotonic K^+ free buffer (50 mM Na2SO4, 25 mM HEPES-SO4^−2, pH 6.8), and the fluorescent, potential-sensitive dye diS-C2-5 was then added. Valinomycin (1 μl of 10^−7 M) was added to the suspension in order to slowly create a negative diffusion potential inside the vesicles, which led to a quenching of the dye's fluorescence. Once the fluorescence had stabilized, which took 3–10 minutes, peptides were added. The subsequent dissipation of the diffusion potential, as reflected by an increase in fluorescence, was monitored on a Perkin Elmer LS-50B spectrofluorometer, with the excitation set at 620 nm, the emission at 670 nm, and the gain adjusted to 100%. The percentage of fluorescence recovery, Ft, was defined as: Ft=(It−I0/If−I0)×100 where I0=the initial fluorescence, If=the total fluorescence observed before the addition of valinomycin, and It=the fluorescence observed after adding the peptide at time t.
2.5.1 Membrane permeability induced by the peptides. […]

[2] = test system: Pseudomonas aeruginosa ATCC 27853; settings: pooled human serum; P. aeruginosa and E. coli
Method: (viii) Antibacterial activity of the peptides.
Antibacterial activity of the mixtures was determined as described in Experimental procedures, section (xii).

Structure (SMILES)	membrane permeating activity with PC (zwitterionic) vesicles [1]	change of antibacterial activity in the presence of serum (fold less active) [2]
CC(C)C[C@H](NC(=O)[C@H](CC(C)C)NC(=O)[C@@H](CC(C)C)NC(=O)[C@@H](CC(C)C)NC(=O)[C@H](CC(C)C)NC(=O)[C@@H](N)CCCCN)C(=O)N[C@@H](CCCCN)C(=O)N[C@H](CC(C)C)C(=O)N[C@@H](CC(C)C)C(=O)N[C@H](CC(C)C)C(=O)N[C@@H](CC(C)C)C(=O)N[C@@H](CCCCN)C(N)=O [Peptide 22, [D]-L^3,4,8,10-K3L9] (H-KL[dL][dL]LLK[dL]L[dL]LK-NH2)	permeated the zwitterionic phospholipid vesicles	–
CC(C)C[C@H](NC(=O)[C@H](CCCCN)NC(=O)[C@@H](CC(C)C)NC(=O)[C@@H](CC(C)C)NC(=O)[C@H](CC(C)C)NC(=O)[C@@H](N)CCCCN)C(=O)N[C@@H](CCCCN)C(=O)N[C@H](CC(C)C)C(=O)N[C@@H](CCCCN)C(=O)N[C@H](CC(C)C)C(=O)N[C@@H](CC(C)C)C(=O)N[C@@H](CCCCN)C(N)=O [Peptide 24, [D]-L^3,4,8,10-K5L7] (H-KL[dL][dL]KLK[dL]K[dL]LK-NH2)	–	retained its antibacterial activity
